Data published in publication doi:10.1101/073015.
Results are given in words; binding and its absence hold for the method and conditions named. Tags and fused reporters may be left off the sequences shown.

Molecular target: T1, MAP kinase 12 (MPK12), Col-0 version, split-ubiquitin two-hybrid fusion (Arabidopsis thaliana) (UniProt Q8GYQ5)
T1 sequence: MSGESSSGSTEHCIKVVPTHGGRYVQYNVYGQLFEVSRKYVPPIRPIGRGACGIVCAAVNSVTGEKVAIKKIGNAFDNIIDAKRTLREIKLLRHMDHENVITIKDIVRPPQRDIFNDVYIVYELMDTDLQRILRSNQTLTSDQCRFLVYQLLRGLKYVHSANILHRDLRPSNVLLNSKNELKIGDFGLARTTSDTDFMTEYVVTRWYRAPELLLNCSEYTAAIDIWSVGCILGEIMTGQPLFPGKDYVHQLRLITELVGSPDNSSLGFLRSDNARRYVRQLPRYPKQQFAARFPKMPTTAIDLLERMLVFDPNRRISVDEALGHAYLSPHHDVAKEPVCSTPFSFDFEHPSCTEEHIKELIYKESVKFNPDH
Test: two-hybrid

binding: no binding
Substance: HAB1, split-ubiquitin two-hybrid prey (Arabidopsis thaliana) (enzyme)
